Test results from article PMC7719708.
These are yes or no findings as the source states them, for the method shown. In cells and extracts the contact can be indirect. Some results given as binding are weak or reduced against the parent protein; the word gives no strength.

Sequences of proteins named here, by UniProt entry; tags and fusion partners are left off. A change or cut given only in a name is not applied to a line headed by its entry.
UniProt Q8CI15: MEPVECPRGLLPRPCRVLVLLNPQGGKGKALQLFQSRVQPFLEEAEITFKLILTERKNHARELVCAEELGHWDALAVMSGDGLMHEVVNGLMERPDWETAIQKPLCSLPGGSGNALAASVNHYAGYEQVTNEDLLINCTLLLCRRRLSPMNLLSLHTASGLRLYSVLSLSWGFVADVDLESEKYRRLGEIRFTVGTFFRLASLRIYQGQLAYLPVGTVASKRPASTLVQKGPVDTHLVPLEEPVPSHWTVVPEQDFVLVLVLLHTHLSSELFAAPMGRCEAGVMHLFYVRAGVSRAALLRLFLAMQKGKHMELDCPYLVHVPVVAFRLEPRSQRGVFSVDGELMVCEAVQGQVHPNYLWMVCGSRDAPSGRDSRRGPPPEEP
UniProt Q6PHZ2: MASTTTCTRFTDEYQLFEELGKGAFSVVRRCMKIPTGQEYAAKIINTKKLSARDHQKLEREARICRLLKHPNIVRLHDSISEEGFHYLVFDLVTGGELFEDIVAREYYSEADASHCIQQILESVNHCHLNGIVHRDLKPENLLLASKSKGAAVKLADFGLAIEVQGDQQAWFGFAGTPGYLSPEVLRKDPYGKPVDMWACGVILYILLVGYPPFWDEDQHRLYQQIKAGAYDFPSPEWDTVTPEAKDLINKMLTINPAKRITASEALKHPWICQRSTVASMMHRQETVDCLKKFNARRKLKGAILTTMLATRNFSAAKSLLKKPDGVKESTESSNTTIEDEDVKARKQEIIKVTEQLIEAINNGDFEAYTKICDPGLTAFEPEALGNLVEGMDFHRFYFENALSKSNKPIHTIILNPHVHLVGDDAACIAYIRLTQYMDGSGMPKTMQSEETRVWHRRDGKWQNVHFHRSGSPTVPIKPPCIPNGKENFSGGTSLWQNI

Target: Sphingosine kinase 1 (SphK1), endogenous in RAW264.7 cells (mouse (endogenous in RAW264.7)) (UniProt Q8CI15)
Assay: co-IP; lysates of LPS-stimulated (1 μg/ml, 16 h) RAW264.7 cells in RIPA buffer, precleared; primary antibody overnight at 4 °C, protein A/G magnetic beads; immunoblotting

Calcium/calmodulin protein kinase II-δ (CaMKII-δ), endogenous in RAW264.7 cells (from UniProt Q6PHZ2 1-499) (enzyme)
binding: binds
